PubChem BioAssay AID1259405 – NCATS | 2018
Here is an unselected part of about 50,000 reagents tested. Of all reagents, about 4,000 (8%) got an active call. 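Mouse siRNA library applied to hamster cells; one well for each siRNA.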 A number with no mark means an inactive call. The numbers tell different reagents against one gene apart.

Test: 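Mouse-designed siRNAs used to find CHO productivity engineering targets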 (primary screen)
Cell system: Chinese hamster CHO-K1 ovary cells with stable secreted eGFP expression
Reagents: single siRNA against mouse genes, 0.8 pmol siRNA per well (2 µl of 400 nM stock)
Time to read-out: 3 days
Read-out: 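Per-well intracellular GFP measured by laser scanning cytometry, plus viability from ATP luminescence, each relative to plate median of non-targeting control wells, in %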
Direction: GFP, % of control: higher = more GFP per well, higher productivity; viability (ATP), % of control: higher = more viable cells (more ATP)
Call rule: 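Called active when intracellular GFP, relative to negative control, is at or above 120%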

Rps21 #1
- GFP, % of control: 75.5
- viability (ATP), % of control: 59.8

Rps21 #2
- GFP, % of control: 64.5
- viability (ATP), % of control: 29.1

Rps21 #3
- GFP, % of control: 51
- viability (ATP), % of control: 60.7

Dcaf7 #1
- GFP, % of control: 90.9
- viability (ATP), % of control: 61.4

Dcaf7 #2
- GFP, % of control: 54
- viability (ATP), % of control: 44.5

Dcaf7 #3
- GFP, % of control: 66.5
- viability (ATP), % of control: 83.3

Cd59b #1
- GFP, % of control: 54.1
- viability (ATP), % of control: 54.8

Cd59b #2
- GFP, % of control: 109
- viability (ATP), % of control: 89.4

Cd59b #3
- GFP, % of control: 94.2
- viability (ATP), % of control: 77.2

Dhodh #1
- GFP, % of control: 117
- viability (ATP), % of control: 89.8

Dhodh #2
- GFP, % of control: 46.3
- viability (ATP), % of control: 60.1

Dhodh #3
- GFP, % of control: 82.2
- viability (ATP), % of control: 72.7

Med6 #1
- GFP, % of control: 96.9
- viability (ATP), % of control: 90.2

Med6 #2
- GFP, % of control: 90.2
- viability (ATP), % of control: 67.2

Gm4952 #1
- GFP, % of control: 72.2
- viability (ATP), % of control: 80.8

Gm4952 #2
- GFP, % of control: 78.6
- viability (ATP), % of control: 81

Gm4952 #3
- GFP, % of control: 60.7
- viability (ATP), % of control: 54

Scai #1
- GFP, % of control: 71
- viability (ATP), % of control: 69.6

Scai #2
- GFP, % of control: 22.8
- viability (ATP), % of control: 24.5

Scai #3
- GFP, % of control: 68.2
- viability (ATP), % of control: 116

Mslnl #1
- GFP, % of control: 64.3
- viability (ATP), % of control: 66.2

Mslnl #2
- GFP, % of control: 54
- viability (ATP), % of control: 46.2

Mslnl #3
- GFP, % of control: 82.6
- viability (ATP), % of control: 79.7

Mtg2 #1
- GFP, % of control: 71.1
- viability (ATP), % of control: 72.4

Mtg2 #2
- GFP, % of control: 80.4
- viability (ATP), % of control: 84.6

Mtg2 #3
- GFP, % of control: 106
- viability (ATP), % of control: 109

Spats1 #1
- GFP, % of control: 152 (active)
- viability (ATP), % of control: 92.4

Spats1 #2
- GFP, % of control: 83.3
- viability (ATP), % of control: 119

Spats1 #3
- GFP, % of control: 111
- viability (ATP), % of control: 130

Hps5 #1
- GFP, % of control: 65.9
- viability (ATP), % of control: 61.8

Hps5 #2
- GFP, % of control: 50.6
- viability (ATP), % of control: 41.8

Hps5 #3
- GFP, % of control: 97.4
- viability (ATP), % of control: 112

Capn9 #1
- GFP, % of control: 60.8
- viability (ATP), % of control: 76.5

Capn9 #2
- GFP, % of control: 68.1
- viability (ATP), % of control: 79.3

Capn9 #3
- GFP, % of control: 64.5
- viability (ATP), % of control: 66.8

Cox6a1 #1
- GFP, % of control: 31.3
- viability (ATP), % of control: 64.4

Cox6a1 #2
- GFP, % of control: 67.9
- viability (ATP), % of control: 59.5

Cox6a1 #3
- GFP, % of control: 78
- viability (ATP), % of control: 55.5

Cox5b #1
- GFP, % of control: 77.7
- viability (ATP), % of control: 68.6

Cox5b #2
- GFP, % of control: 57.7
- viability (ATP), % of control: 70.4

Cox5b #3
- GFP, % of control: 90.3
- viability (ATP), % of control: 67

Limited to “GFP, % of control” (4 entries from above):
Mtg2 #3	106
Spats1 #1	152 (active)
Spats1 #2	83.3
Spats1 #3	111
